# ± gives the standard deviation of the averaged measurements. The list shows a part of the results, in another mix than the full data.
# By UniProt entry, the sequences of proteins in these tests, tags left out. Where a name states a change or a piece, a line headed by the entry shows the natural chain unless it says otherwise.
# UniProt Q6P2P2: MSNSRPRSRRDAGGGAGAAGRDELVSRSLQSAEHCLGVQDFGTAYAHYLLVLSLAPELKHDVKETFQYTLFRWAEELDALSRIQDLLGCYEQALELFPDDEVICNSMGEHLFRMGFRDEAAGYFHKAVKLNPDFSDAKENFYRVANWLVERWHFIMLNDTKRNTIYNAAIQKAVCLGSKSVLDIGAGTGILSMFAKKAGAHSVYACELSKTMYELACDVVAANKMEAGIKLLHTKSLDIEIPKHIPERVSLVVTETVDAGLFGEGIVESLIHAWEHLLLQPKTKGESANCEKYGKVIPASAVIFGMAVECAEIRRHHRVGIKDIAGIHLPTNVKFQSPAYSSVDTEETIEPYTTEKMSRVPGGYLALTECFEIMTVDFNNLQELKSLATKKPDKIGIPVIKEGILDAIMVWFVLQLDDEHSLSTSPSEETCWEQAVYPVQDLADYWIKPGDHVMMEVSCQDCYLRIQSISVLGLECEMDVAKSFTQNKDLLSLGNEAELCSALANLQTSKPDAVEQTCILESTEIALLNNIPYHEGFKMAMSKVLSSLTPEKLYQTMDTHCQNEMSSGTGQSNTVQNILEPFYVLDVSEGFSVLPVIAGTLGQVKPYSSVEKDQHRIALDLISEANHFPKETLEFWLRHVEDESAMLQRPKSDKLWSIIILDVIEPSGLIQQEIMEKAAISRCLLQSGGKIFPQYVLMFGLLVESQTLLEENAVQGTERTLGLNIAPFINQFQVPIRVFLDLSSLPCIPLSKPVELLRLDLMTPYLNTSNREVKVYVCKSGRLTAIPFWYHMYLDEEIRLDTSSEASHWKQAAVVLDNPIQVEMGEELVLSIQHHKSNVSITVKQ
# UniProt Q5RI15: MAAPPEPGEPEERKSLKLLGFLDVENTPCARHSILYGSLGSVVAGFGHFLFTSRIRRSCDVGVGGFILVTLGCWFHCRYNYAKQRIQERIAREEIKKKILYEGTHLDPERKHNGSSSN
# UniProt Q5VZF2: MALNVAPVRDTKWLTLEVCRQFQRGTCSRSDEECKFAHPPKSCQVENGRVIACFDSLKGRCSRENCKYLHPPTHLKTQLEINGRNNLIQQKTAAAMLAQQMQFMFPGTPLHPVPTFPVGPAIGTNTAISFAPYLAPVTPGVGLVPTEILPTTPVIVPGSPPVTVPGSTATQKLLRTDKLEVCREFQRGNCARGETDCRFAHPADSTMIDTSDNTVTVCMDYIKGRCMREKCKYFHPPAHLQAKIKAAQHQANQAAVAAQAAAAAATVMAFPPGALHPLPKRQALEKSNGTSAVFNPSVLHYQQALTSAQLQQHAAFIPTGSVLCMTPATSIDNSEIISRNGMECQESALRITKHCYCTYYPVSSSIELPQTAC
# UniProt Q68CP9, whole entry: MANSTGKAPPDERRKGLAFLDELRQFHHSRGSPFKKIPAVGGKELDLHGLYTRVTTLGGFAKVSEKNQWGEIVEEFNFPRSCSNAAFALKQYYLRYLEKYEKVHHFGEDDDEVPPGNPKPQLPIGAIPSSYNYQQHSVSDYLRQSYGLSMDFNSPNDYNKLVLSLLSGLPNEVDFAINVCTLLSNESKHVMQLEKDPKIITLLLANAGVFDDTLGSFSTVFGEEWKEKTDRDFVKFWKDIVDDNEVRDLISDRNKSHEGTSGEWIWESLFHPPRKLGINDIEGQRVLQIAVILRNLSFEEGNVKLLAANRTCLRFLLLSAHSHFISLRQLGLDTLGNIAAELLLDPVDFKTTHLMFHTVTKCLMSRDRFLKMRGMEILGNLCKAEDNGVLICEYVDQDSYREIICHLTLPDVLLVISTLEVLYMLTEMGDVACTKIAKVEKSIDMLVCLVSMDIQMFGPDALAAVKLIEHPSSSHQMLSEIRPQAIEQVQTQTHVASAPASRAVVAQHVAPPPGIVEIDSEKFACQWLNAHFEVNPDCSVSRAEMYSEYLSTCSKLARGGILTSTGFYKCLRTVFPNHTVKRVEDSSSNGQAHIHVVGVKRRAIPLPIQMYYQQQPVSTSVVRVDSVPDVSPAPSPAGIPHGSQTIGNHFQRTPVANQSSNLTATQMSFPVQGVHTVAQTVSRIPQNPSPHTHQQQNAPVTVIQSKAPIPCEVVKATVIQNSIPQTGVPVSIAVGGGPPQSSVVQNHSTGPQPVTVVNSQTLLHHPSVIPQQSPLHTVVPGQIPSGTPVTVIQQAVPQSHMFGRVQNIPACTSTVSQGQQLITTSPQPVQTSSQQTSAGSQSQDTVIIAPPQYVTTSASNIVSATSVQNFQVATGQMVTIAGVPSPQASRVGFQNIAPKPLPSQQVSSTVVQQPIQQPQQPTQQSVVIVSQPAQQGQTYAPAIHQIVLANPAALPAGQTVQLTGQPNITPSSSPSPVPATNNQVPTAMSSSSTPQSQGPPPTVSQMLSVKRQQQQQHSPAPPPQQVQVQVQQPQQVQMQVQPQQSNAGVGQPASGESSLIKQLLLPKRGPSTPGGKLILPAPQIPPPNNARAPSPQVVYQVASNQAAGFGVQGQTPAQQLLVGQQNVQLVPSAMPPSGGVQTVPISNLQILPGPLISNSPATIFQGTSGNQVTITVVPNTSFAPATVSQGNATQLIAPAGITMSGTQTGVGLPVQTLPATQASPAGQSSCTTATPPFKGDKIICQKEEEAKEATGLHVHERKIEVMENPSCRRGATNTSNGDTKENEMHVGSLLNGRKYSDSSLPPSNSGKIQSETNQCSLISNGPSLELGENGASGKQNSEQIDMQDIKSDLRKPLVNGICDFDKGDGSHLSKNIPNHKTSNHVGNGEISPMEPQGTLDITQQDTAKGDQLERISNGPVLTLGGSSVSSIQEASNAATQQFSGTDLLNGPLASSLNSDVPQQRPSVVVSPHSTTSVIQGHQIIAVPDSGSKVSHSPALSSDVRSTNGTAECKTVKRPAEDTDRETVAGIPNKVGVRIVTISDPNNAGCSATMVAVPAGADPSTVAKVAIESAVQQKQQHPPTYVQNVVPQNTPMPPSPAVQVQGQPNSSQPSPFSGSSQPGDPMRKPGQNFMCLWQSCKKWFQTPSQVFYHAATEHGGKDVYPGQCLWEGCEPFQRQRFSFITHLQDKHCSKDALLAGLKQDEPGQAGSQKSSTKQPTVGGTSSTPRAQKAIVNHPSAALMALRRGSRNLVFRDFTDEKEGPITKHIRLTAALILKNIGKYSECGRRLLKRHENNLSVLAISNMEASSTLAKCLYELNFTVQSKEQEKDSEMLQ
# UniProt Q9NSU2: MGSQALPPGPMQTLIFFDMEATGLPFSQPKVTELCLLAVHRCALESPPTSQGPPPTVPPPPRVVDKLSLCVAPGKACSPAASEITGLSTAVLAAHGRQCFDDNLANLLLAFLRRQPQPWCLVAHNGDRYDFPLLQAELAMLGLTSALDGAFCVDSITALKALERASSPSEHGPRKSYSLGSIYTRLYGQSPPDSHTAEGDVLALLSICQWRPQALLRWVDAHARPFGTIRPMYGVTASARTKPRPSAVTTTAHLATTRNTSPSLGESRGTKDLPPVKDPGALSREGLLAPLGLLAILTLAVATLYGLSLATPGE
# UniProt Q5W0V3: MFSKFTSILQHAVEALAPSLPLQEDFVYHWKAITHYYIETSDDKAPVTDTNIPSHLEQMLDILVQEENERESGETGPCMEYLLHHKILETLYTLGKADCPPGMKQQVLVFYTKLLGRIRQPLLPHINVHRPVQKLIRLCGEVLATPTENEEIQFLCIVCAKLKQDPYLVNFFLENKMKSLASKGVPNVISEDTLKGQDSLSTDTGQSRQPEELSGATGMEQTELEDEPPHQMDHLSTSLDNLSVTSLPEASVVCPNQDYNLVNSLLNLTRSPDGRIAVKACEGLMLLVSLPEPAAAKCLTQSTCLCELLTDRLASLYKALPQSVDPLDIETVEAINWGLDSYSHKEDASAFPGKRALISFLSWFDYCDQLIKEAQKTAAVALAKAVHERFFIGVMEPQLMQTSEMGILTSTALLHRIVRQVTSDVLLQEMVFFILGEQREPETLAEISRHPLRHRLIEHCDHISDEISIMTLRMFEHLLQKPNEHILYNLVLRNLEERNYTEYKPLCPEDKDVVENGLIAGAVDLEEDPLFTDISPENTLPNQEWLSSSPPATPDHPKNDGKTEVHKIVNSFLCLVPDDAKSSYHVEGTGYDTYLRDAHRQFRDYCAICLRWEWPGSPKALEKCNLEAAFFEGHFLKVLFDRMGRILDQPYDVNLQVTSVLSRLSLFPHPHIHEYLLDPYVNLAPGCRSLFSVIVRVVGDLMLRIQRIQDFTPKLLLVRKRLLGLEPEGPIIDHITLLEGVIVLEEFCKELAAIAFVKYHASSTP
# UniProt Q6F5E8: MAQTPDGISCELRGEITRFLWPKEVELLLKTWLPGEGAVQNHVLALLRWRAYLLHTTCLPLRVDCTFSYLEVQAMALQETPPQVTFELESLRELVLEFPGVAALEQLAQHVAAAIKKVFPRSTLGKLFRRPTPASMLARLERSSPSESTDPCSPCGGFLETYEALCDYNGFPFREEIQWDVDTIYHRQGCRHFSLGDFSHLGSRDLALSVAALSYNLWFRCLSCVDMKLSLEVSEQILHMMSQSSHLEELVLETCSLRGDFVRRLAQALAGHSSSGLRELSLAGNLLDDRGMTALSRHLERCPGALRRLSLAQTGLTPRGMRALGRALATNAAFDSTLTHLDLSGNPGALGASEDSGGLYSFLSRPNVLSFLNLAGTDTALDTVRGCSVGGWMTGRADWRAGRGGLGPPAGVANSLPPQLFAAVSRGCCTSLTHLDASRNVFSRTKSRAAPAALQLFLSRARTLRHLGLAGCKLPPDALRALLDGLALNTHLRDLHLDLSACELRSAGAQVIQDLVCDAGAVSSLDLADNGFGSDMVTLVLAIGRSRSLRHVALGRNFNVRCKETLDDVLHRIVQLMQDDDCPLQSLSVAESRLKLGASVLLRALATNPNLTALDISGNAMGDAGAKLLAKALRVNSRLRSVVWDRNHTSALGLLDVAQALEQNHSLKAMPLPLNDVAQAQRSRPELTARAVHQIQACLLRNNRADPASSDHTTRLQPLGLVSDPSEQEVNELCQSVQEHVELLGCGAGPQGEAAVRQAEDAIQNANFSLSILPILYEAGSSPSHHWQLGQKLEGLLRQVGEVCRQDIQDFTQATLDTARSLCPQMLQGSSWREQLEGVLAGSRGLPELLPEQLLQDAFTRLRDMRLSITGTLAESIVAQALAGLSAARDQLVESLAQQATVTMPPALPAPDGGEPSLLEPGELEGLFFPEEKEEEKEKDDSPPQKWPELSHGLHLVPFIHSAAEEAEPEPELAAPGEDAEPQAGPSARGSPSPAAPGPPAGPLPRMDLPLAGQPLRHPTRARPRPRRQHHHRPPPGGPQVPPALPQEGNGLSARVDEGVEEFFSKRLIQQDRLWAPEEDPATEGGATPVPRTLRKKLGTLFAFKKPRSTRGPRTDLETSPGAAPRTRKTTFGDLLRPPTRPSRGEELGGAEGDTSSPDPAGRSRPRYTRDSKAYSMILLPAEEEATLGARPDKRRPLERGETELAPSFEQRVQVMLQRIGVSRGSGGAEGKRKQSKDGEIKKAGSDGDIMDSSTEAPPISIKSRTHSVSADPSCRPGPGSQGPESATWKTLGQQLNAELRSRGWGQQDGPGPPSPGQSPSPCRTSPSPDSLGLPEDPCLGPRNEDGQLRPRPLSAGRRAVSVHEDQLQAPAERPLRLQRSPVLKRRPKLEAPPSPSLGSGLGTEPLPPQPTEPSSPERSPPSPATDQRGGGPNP
# UniProt Q4KMQ2: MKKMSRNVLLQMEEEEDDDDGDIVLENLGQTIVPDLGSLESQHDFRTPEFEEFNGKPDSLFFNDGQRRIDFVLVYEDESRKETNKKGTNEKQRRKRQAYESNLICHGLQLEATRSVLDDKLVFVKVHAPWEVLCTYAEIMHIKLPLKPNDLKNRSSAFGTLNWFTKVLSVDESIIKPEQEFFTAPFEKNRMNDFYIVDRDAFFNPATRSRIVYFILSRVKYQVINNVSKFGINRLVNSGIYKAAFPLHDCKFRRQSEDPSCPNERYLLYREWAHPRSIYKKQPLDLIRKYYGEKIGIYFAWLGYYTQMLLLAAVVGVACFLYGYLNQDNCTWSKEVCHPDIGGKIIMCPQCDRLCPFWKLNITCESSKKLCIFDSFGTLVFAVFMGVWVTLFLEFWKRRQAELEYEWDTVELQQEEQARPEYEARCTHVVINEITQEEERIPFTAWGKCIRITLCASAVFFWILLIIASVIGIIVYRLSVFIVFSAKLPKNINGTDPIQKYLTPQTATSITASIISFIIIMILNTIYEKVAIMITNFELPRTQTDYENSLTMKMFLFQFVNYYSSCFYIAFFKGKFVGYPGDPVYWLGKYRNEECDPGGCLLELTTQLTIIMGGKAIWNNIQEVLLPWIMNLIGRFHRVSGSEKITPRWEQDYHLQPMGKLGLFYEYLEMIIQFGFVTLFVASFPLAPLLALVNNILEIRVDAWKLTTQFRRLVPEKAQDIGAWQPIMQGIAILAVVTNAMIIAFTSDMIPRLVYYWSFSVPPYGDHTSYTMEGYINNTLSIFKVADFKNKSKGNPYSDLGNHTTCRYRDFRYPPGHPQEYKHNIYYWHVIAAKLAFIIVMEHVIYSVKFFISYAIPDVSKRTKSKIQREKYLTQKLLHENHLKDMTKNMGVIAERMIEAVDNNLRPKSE
# Compound: Nc1ncnc2c1ncn2[C@@H]1O[C@H](COP(=O)(O)OP(=O)(O)OP(=O)(O)O)[C@@H](O)[C@H]1O [adenosine triphosphate]
# Test: NP40-soluble protein abundance relative to vehicle (solubility fold change) (ratio); higher = more soluble protein in presence of ATP
# Conditions: concentration: 4mM
# Summary of the method: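 Eight concentrations, 0.1 to 10 mM, were tested on Jurkat crude lysate for 10 min at room temperature and then 3 min at 37 °C, in three independent experiments. The lysate was solubilised with 0.8% NP40 and benzonase, ultracentrifuged, and the supernatant TMT-labelled for LC-MS/MS. Each value is the fold change against the detergent-processed vehicle in its own replicate, from vsn-normalised intensities.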
row,Target,NP40-soluble protein abundance
1,UniProt Q6P2P2,1 ± 0.079
2,UniProt Q5RI15 and related entries,1.03 ± 0.024
3,Q5JSC0 and related entries (UniProt Q5VZF2),0.995 ± 0.072
4,ARID2 (UniProt Q68CP9),1.25 ± 0.034
5,TTC27 (UniProt Q6P3X3),0.984 ± 0.029
6,Q5TZT0 and related entries (UniProt Q9NSU2),0.984 ± 0.02
7,ADNP2 (UniProt Q6IQ32),1.18 ± 0.073
8,PITRM1 (UniProt Q5JRX3),0.979 ± 0.038
9,UniProt Q5BKY9 and related entries,1.04 ± 0.099
10,FAM160B1 (UniProt Q5W0V3),0.967 ± 0.018
11,UniProt Q6F5E8 and related entries,1.15 ± 0.066
12,UniProt Q4KMQ2 and related entries,0.954 ± 0.029
13,INTS5 (UniProt Q6P9B9),1.14 ± 0.019

# Same assay, conditions: concentration: 6mM
row,Target,NP40-soluble protein abundance
1,RCSD1 (UniProt Q6JBY9),0.822 ± 0.079
2,Q5VV50 and related entries (UniProt Q5VV52),1.29 ± 0.096
3,UniProt Q6P1J9,0.99 ± 0.033
4,HABP4 (UniProt Q5JVS0),1.53 ± 0.18
5,NXN (UniProt Q6DKJ4),0.958 ± 0.1
6,UniProt Q5TC82 and related entries,1.1 ± 0.069
7,UniProt Q5JTD0 and related entries,0.947 ± 0.043
8,TMEM41B (UniProt Q5BJD5),0.919 ± 0.11
9,Q5JY65 and related entries (UniProt Q9BZJ0),0.985 ± 0.045
10,UniProt Q5EBL8 and related entries,1.07 ± 0.048
11,UniProt Q6IQ49 and related entries,0.973 ± 0.025
12,Q5TH58 and related entries (UniProt Q9H6K1),1.02 ± 0.12
13,UniProt Q6NTF9 and related entries,0.846 ± 0.046
14,UniProt Q6PD74 and related entries,0.981 ± 0.056
15,UniProt Q5TDH0 and related entries,0.958 ± 0.051
16,UniProt Q5W0U4 and related entries,1.07 ± 0.0023
17,UniProt Q5THK1 and related entries,0.903 ± 0.075
18,UniProt Q5M775 and related entries,0.926 ± 0.014
19,ERAP2 (UniProt Q6P179),0.894 ± 0.046

row,Target,NP40-soluble protein abundance
1,HSD17B12 (UniProt Q53GQ0),0.886 ± 0.096
2,UniProt Q5T0N5-3|Q5T0N5-4,1.03 ± 0.016
3,UniProt Q6P2H3 and related entries,1.01 ± 0.095
4,UniProt Q6IAA8,1.02 ± 0.11
5,UniProt Q5VZE5,1.02 ± 0.083
6,UniProt Q66K14 and related entries,0.963 ± 0.027
7,UniProt Q6P2P2,0.977 ± 0.11
8,UniProt Q5RI15 and related entries,1.21 ± 0.14
9,Q5JSC0 and related entries (UniProt Q5VZF2),0.993 ± 0.1
10,ARID2 (UniProt Q68CP9),1.31 ± 0.13
11,TTC27 (UniProt Q6P3X3),0.953 ± 0.12
12,Q5TZT0 and related entries (UniProt Q9NSU2),0.958 ± 0.097
13,ADNP2 (UniProt Q6IQ32),1.15 ± 0.14
14,PITRM1 (UniProt Q5JRX3),0.974 ± 0.075
15,UniProt Q5BKY9 and related entries,1.06 ± 0.1
16,FAM160B1 (UniProt Q5W0V3),0.946 ± 0.061
17,UniProt Q6F5E8 and related entries,1.15 ± 0.14
18,UniProt Q4KMQ2 and related entries,0.93 ± 0.047
19,INTS5 (UniProt Q6P9B9),1.06 ± 0.064

# Same assay, conditions: concentration: 8mM
row,Target,NP40-soluble protein abundance
1,RCSD1 (UniProt Q6JBY9),0.7364 ± 0.0037
2,Q5VV50 and related entries (UniProt Q5VV52),1.26 ± 0.053
3,UniProt Q6P1J9,0.899 ± 0.028
4,HABP4 (UniProt Q5JVS0),1.359 ± 0.0073
5,NXN (UniProt Q6DKJ4),0.968 ± 0.097
6,UniProt Q5TC82 and related entries,1.09 ± 0.016
7,UniProt Q5JTD0 and related entries,0.901 ± 0.056
8,TMEM41B (UniProt Q5BJD5),0.964 ± 0.059
9,Q5JY65 and related entries (UniProt Q9BZJ0),1.01 ± 0.034
10,UniProt Q5EBL8 and related entries,1.01 ± 0.064
11,UniProt Q6IQ49 and related entries,0.942 ± 0.021
12,Q5TH58 and related entries (UniProt Q9H6K1),0.977 ± 0.04
13,UniProt Q6NTF9 and related entries,0.915 ± 0.019
14,UniProt Q6PD74 and related entries,0.958 ± 0.025
15,UniProt Q5TDH0 and related entries,0.968 ± 0.044
16,UniProt Q5W0U4 and related entries,1.11 ± 0.096
17,UniProt Q5THK1 and related entries,0.864 ± 0.086
18,UniProt Q5M775 and related entries,0.857 ± 0.05
19,ERAP2 (UniProt Q6P179),0.88 ± 0.034

row,Target,NP40-soluble protein abundance
1,HSD17B12 (UniProt Q53GQ0),0.965 ± 0.021
2,UniProt Q5T0N5-3|Q5T0N5-4,0.98 ± 0.015
3,UniProt Q6P2H3 and related entries,1.01 ± 0.047
4,UniProt Q6IAA8,0.942 ± 0.045
5,UniProt Q5VZE5,1.04 ± 0.06
6,UniProt Q66K14 and related entries,0.963 ± 0.047
7,UniProt Q6P2P2,0.999 ± 0.066
8,UniProt Q5RI15 and related entries,0.955 ± 0.079
9,Q5JSC0 and related entries (UniProt Q5VZF2),0.984 ± 0.04
10,ARID2 (UniProt Q68CP9),1.33 ± 0.074
11,TTC27 (UniProt Q6P3X3),1 ± 0.1
12,Q5TZT0 and related entries (UniProt Q9NSU2),0.965 ± 0.019
13,ADNP2 (UniProt Q6IQ32),1.28 ± 0.014
14,PITRM1 (UniProt Q5JRX3),0.974 ± 0.026
15,UniProt Q5BKY9 and related entries,1.05 ± 0.099
16,FAM160B1 (UniProt Q5W0V3),0.985 ± 0.025
17,UniProt Q6F5E8 and related entries,1.17 ± 0.1
18,UniProt Q4KMQ2 and related entries,0.935 ± 0.032
19,INTS5 (UniProt Q6P9B9),1.21 ± 0.13
